# Measurements reported in the supplement of paper PMC10849652.
# By UniProt entry, the sequences of proteins in these tests, tags left out. Where a name states a change or a piece, a line headed by the entry shows the natural chain unless it says otherwise.
# UniProt A0PK00: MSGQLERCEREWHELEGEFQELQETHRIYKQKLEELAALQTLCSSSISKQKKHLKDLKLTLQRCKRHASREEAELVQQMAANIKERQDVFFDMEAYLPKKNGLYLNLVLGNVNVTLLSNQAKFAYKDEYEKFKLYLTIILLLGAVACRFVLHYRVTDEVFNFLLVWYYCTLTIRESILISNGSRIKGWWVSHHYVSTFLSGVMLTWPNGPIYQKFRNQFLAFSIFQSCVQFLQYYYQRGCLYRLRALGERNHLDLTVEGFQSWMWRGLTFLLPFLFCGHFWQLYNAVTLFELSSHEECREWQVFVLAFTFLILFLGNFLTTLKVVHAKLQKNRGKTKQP
# UniProt P07996: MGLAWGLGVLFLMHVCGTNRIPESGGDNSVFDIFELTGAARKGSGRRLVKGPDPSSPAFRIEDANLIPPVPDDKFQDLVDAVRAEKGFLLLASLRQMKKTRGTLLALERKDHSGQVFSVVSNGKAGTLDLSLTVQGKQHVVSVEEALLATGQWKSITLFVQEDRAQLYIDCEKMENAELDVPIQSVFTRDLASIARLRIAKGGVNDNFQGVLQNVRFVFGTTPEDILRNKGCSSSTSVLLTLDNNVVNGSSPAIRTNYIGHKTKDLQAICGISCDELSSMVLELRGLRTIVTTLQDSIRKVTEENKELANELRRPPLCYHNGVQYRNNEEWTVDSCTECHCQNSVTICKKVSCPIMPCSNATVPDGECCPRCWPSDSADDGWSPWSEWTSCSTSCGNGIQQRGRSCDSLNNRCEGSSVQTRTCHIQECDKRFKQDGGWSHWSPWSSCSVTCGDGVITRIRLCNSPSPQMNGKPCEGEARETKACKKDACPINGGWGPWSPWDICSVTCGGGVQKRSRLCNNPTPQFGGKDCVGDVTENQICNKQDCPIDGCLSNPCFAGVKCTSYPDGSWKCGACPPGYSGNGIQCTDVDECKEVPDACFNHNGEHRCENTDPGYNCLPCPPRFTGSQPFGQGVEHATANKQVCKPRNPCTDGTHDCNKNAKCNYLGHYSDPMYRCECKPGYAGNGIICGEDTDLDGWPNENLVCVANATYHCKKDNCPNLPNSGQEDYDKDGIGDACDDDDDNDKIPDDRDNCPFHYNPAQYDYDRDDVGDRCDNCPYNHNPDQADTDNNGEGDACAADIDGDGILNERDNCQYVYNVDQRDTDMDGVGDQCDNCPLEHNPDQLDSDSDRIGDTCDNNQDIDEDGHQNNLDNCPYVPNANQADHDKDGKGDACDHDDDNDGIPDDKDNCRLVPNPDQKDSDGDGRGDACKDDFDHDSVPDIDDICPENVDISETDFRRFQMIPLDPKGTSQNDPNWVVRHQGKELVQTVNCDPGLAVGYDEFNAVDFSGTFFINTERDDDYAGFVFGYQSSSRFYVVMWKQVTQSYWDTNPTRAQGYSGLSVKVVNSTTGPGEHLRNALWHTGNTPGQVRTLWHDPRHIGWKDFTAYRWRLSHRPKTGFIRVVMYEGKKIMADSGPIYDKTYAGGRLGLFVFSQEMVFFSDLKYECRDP
# UniProt Q96B96: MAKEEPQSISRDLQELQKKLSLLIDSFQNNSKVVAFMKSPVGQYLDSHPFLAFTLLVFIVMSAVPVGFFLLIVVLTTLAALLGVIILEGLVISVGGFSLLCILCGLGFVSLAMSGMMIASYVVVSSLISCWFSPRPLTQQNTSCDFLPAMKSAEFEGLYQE
# UniProt Q9BRN9: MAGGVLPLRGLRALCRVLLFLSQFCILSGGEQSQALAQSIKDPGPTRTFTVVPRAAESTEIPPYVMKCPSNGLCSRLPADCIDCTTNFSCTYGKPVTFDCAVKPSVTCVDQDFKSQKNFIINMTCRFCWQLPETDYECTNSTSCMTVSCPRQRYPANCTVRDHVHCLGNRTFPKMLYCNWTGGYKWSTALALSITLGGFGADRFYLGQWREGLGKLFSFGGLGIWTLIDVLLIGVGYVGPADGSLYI
# UniProt Q9NPI0: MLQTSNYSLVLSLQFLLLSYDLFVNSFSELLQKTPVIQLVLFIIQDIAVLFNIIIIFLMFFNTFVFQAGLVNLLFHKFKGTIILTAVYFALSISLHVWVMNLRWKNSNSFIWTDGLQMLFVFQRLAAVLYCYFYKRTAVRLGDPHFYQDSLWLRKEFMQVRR
# UniProt Q9H6X4: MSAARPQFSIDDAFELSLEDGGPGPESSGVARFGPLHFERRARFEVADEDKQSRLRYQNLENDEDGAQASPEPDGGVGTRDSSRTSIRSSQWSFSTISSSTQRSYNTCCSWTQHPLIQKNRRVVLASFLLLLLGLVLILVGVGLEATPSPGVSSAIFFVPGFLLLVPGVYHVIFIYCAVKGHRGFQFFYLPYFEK
# UniProt P51854: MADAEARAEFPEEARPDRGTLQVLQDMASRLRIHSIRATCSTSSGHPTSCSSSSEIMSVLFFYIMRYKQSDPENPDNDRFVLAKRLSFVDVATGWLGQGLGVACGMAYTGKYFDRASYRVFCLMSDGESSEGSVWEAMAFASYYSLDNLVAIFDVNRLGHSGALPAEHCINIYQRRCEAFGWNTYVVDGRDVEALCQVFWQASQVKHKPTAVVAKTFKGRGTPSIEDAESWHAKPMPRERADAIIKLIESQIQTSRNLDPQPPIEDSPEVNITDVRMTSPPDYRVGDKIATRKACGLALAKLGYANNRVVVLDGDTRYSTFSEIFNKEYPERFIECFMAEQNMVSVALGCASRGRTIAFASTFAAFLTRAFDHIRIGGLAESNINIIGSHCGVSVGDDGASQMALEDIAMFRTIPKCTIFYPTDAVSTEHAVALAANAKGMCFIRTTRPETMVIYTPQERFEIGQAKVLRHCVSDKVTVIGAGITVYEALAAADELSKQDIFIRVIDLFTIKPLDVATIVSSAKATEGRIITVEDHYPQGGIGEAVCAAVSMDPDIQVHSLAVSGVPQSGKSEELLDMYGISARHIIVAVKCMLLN
# UniProt Q9Y3Q3: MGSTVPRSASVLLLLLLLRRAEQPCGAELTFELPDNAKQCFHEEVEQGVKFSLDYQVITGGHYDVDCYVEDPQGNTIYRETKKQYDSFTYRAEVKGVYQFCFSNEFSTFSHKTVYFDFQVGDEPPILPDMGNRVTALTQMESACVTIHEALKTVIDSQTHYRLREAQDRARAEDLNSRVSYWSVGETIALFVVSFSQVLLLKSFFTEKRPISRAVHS
# UniProt Q8WY91: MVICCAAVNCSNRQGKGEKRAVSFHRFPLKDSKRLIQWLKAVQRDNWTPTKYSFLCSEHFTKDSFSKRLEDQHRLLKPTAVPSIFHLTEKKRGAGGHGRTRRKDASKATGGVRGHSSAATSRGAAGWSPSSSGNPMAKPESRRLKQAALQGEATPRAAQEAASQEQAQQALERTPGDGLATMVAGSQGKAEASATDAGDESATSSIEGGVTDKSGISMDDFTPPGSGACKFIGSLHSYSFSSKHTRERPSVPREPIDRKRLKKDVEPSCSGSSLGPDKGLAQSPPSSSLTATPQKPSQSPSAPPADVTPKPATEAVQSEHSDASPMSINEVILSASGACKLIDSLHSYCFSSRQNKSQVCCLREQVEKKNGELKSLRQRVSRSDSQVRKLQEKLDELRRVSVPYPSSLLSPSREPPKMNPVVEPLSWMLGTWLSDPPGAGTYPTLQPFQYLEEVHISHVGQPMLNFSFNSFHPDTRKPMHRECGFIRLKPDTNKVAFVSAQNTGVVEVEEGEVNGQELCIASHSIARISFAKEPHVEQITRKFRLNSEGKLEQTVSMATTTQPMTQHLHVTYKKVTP
# UniProt Q7Z6K1, whole entry, looked up: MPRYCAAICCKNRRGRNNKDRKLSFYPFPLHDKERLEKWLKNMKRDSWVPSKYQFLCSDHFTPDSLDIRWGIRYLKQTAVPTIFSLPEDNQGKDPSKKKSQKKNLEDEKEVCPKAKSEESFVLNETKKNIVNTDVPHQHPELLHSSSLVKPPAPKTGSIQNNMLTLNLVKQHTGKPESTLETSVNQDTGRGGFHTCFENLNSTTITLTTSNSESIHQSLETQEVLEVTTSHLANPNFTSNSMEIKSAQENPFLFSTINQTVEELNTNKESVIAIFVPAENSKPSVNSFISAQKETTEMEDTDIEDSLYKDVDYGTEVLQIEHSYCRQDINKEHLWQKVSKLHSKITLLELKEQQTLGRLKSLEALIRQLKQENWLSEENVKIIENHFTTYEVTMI
# UniProt Q86UE8, whole entry, looked up: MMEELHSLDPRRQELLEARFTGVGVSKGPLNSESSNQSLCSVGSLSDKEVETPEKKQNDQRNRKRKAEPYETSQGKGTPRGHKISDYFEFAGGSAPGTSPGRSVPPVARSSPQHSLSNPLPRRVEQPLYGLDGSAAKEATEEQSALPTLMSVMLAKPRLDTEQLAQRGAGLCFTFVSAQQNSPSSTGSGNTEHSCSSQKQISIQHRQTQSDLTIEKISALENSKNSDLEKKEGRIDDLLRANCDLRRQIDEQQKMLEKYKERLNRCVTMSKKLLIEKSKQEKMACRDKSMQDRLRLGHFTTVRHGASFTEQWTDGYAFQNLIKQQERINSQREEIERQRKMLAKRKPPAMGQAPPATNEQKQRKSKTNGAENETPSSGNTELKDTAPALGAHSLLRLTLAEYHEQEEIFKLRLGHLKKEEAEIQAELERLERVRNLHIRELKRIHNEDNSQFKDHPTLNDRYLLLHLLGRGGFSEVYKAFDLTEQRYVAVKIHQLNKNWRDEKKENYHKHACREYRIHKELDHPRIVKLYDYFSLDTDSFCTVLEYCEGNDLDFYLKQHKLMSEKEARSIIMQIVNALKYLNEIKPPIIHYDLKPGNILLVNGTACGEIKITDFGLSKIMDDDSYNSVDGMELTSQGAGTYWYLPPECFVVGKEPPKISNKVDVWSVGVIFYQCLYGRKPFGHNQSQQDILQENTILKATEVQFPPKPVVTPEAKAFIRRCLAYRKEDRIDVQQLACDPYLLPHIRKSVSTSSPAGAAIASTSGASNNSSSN
# UniProt Q24JP5: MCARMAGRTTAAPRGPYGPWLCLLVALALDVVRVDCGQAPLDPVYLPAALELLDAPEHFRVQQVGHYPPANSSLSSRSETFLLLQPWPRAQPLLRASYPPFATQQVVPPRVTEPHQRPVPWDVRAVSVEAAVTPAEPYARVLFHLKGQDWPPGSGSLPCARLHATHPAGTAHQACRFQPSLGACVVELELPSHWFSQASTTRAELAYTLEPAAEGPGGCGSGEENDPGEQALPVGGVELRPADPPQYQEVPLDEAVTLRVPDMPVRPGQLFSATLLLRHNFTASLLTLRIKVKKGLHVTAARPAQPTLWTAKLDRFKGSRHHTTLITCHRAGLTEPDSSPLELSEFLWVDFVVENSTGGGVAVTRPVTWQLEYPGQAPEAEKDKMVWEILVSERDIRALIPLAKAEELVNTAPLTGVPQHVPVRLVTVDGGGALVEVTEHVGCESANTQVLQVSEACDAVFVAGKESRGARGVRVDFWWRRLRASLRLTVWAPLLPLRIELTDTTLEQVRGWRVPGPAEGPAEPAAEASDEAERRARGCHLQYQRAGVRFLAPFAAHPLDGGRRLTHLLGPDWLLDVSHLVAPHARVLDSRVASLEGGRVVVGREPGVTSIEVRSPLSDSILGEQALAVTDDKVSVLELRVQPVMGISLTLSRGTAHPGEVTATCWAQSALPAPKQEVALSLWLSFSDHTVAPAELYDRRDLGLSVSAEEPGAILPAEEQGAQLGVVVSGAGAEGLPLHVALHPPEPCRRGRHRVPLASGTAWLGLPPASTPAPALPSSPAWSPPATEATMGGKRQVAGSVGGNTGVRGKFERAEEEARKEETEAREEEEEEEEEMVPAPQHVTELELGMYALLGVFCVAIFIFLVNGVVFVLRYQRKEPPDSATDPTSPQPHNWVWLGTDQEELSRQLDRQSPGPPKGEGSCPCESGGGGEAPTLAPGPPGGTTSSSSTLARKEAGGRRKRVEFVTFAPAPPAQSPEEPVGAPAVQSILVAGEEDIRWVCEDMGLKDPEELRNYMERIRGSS
# UniProt Q1AE95: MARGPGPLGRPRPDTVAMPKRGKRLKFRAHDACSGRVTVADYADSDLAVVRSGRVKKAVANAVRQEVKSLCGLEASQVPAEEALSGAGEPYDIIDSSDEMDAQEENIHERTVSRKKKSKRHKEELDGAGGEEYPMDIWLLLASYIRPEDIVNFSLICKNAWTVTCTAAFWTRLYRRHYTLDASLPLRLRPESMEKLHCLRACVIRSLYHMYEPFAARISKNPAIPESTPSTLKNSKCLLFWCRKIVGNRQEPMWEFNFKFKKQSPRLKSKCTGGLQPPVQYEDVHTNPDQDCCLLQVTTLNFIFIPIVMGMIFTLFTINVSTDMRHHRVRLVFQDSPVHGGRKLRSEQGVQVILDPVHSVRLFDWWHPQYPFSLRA
# UniProt Q9H1K6: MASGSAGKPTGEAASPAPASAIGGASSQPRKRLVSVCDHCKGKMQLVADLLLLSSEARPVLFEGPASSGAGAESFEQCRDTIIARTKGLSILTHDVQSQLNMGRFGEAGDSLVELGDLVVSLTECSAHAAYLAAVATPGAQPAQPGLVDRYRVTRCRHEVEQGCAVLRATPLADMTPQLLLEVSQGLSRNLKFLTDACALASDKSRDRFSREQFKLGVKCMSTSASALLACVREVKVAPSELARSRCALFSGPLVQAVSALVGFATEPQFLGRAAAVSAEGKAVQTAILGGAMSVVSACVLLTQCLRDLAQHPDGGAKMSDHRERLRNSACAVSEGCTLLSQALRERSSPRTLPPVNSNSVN
# The list shows a part of the results.
# Experiments:
# Assay in all cases: log2 fold change, soluble protein after heating vs DMSO (PISA); higher = thermal stabilisation; K562 lysate, 10 uM; active = over 0.2 and 3.5 SD of the protein, either way, in both replicates (recomputed)
# [1] = compound: Cc1sc2c(c1C)C(c1ccc(Cl)cc1)=N[C@@H](CC(=O)OC(C)(C)C)c1nnc(C)n1-2
# Outline: (§1)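 K562 pellets were dounce-homogenised in PBS pH 7.4 containing 1 mM MgCl2, and the crude extract, at 1 mg/mL protein, was exposed to 10 μM compound for 30 min. Aliquots were heated for 3 min across 48°C-58°C, pooled, brought to 0.5% NP-40 at 4°C and spun at 21,000xg for 90 min, with the supernatant taken as soluble protein. TMTpro 16plex LC-MS/MS with equalised channel sums quantified that protein. Values are log-two fold changes in thermal stability relative to solvent controls, taken from duplicates.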
# [2] = compound: CC1=C2C(=CC=C1)N=C(N(C2=O)C3=CC=CC=C3C)CN4C=NC5=C(N=CN=C54)N
# Outline: as §1
# [3] = compound: c1ccc([C@@H]2C[C@H]2NC2CCNCC2)cc1
# Outline: as §1
# [4] = compound: C1=CC=C(C=C1)[C@H](COC2=CC3=C(C=C2)NC(=O)N3)NC(=O)C4=CC=CN(C4=O)CC5=CC(=C(C=C5)F)F
# Outline: as §1
# [5] = compound: CC1=C(SC2=C1C(=N[C@H](C3=NN=C(N32)C)CC(=O)N)C4=CC=C(C=C4)Cl)C
# Outline: as §1
target,measurement,setting,value
TGFBR1 isoform 2 (UniProt P36897),log2 fold change,[1],inactive: -0.004
TMEM120B (UniProt A0PK00),log2 fold change,[2],inactive: 0.112
same,log2 fold change,[1],inactive: -0.123
THBS1 (UniProt P07996),log2 fold change,[2],inactive: -0.083
same,log2 fold change,[1],inactive: 0.095
same,log2 fold change,[3],inactive: -0.007
TMEM159 isoform 2 (UniProt Q96B96),log2 fold change,[4],inactive: 0.008
same,log2 fold change,[5],inactive: -0.042
same,log2 fold change,[1],inactive: -0.139
same,log2 fold change,[3],inactive: 0.034
TICAM1 (UniProt Q8IUC6),log2 fold change,[4],inactive: -0.204
same,log2 fold change,[5],inactive: -0.036
same,log2 fold change,[1],inactive: -0.076
same,log2 fold change,[3],inactive: 0.043
TMCC1 (UniProt O94876),log2 fold change,[2],inactive: -0.107
same,log2 fold change,[1],inactive: 0.236
same,log2 fold change,[3],inactive: -0.038
TMC1 (UniProt Q8TDI8),log2 fold change,[2],inactive: 0.038
TM2D3 (UniProt Q9BRN9),log2 fold change,[4],inactive: 0.023
same,log2 fold change,[5],inactive: -0.003
same,log2 fold change,[3],inactive: -0.513
TMEM138 (UniProt Q9NPI0),log2 fold change,[2],inactive: 0.081
same,log2 fold change,[1],inactive: -0.094
TMEM101 (UniProt Q96IK0),log2 fold change,[4],inactive: -0.122
same,log2 fold change,[5],inactive: 0.054
same,log2 fold change,[1],inactive: -0.125
same,log2 fold change,[3],inactive: 0
TICRR (UniProt Q7Z2Z1),log2 fold change,[1],inactive: 0.217
TMEM131 (UniProt Q92545),log2 fold change,[3],inactive: -0.144
TMEM134 (UniProt Q9H6X4),log2 fold change,[1],inactive: -0.038
same,log2 fold change,[3],inactive: 0.044
TKTL1 (UniProt P51854),log2 fold change,[1],inactive: -0.008
same,log2 fold change,[3],inactive: -0.164
TMED3 (UniProt Q9Y3Q3),log2 fold change,[4],inactive: 0.187
same,log2 fold change,[5],inactive: 0.252
same,log2 fold change,[3],inactive: 0.024
THAP4 (UniProt Q8WY91),log2 fold change,[3],inactive: -0.053
TMEM184C (UniProt Q9NVA4),log2 fold change,[4],inactive: 0.002
same,log2 fold change,[5],inactive: 0.038
same,log2 fold change,[1],inactive: -0.022
THAP5 (UniProt Q7Z6K1),log2 fold change,[1],inactive: -0.043
TMC6 (UniProt Q7Z403),log2 fold change,[2],inactive: 0
TLK2 isoform 3 (UniProt Q86UE8),log2 fold change,[3],inactive: 0.097
TMEM147 (UniProt Q9BVK8),log2 fold change,[4],inactive: -0.097
same,log2 fold change,[5],inactive: -0.008
same,log2 fold change,[3],inactive: -0.04
TM7SF2 (UniProt O76062),log2 fold change,[3],inactive: -0.029
TGFBR2 isoform 2 (UniProt P37173),log2 fold change,[1],inactive: 0.227
TMEM132A isoform 2 (UniProt Q24JP5),log2 fold change,[3],inactive: -0.066
"TKT, A0A0B4J1R6",log2 fold change,[1],inactive: -0.222
same,log2 fold change,[3],inactive: -0.362
TMC7 (UniProt Q7Z402),log2 fold change,[3],inactive: 0.011
THOC2 (UniProt H0Y7U4),log2 fold change,[4],inactive: 0.009
same,log2 fold change,[5],inactive: -0.143
same,log2 fold change,[1],inactive: 0.043
TMEM175 (UniProt Q9BSA9),log2 fold change,[4],inactive: -0.034
same,log2 fold change,[5],inactive: -0.033
same,log2 fold change,[3],inactive: 0.257
TMEM143 (UniProt Q96AN5),log2 fold change,[2],inactive: 0.219
same,log2 fold change,[1],inactive: -0.02
same,log2 fold change,[3],inactive: -0.005
TMEM129,log2 fold change,[3],inactive: 0.189
TIFA (UniProt Q96CG3),log2 fold change,[3],inactive: -0.06
TLE3 (UniProt H0YL70),log2 fold change,[1],inactive: -0.343
TJP1 (UniProt H0Y3R8),log2 fold change,[3],inactive: 0.031
TMEM154 (UniProt Q6P9G4),log2 fold change,[1],inactive: -0.073
TMEM183B (UniProt Q1AE95),log2 fold change,[2],inactive: -0.271
same,log2 fold change,[3],inactive: 0.053
TIGAR (UniProt Q9NQ88),log2 fold change,[2],inactive: -0.247
same,log2 fold change,[1],inactive: 0.005
TLNRD1 (UniProt Q9H1K6),log2 fold change,[4],inactive: -0.183
same,log2 fold change,[5],inactive: 0.03
same,log2 fold change,[1],inactive: 0.123

# Some of the entries so far, with bars between the fields:
target | measurement | setting | value
TMEM120B (UniProt A0PK00) | log2 fold change | [1] | inactive: -0.123
TMEM159 isoform 2 (UniProt Q96B96) | log2 fold change | [4] | inactive: 0.008
TKTL1 (UniProt P51854) | log2 fold change | [3] | inactive: -0.164
TM7SF2 (UniProt O76062) | log2 fold change | [3] | inactive: -0.029
TMEM183B (UniProt Q1AE95) | log2 fold change | [3] | inactive: 0.053
